Laboratory results from the supplement of paper PMC12067093, “Discovery and optimisation of a covalent ligand for TRIM25 and its application to targeted protein ubiquitination” (Chemical Science, 2025).
Some of the results follow.

Amino acid sequences for entries named in this document (tags omitted). A change or cut given only in a name is not applied to a line headed by its entry.
UniProt Q86UK7: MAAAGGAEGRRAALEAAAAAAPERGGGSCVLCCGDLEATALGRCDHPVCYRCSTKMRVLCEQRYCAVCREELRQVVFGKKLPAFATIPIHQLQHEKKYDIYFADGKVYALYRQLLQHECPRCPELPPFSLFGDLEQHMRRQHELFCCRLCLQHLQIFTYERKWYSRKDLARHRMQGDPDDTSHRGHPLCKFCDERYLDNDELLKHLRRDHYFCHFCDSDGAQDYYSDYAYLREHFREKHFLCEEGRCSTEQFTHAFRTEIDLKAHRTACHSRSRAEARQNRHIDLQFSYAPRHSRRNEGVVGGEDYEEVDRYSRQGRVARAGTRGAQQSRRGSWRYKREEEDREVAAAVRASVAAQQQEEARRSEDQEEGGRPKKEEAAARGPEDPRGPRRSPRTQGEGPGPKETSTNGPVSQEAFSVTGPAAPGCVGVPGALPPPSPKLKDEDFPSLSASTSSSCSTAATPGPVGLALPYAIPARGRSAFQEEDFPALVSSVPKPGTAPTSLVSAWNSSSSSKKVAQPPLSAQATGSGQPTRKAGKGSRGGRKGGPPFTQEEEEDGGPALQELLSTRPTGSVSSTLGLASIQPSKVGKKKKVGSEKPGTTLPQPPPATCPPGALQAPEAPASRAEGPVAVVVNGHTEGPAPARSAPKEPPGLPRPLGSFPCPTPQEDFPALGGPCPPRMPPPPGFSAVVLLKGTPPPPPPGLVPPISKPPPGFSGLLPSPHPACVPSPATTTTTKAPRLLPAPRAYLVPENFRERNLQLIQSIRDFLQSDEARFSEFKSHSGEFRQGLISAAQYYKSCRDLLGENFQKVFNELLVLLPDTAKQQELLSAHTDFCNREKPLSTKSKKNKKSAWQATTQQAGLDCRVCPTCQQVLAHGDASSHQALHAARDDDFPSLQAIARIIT
UniProt Q8N1G0: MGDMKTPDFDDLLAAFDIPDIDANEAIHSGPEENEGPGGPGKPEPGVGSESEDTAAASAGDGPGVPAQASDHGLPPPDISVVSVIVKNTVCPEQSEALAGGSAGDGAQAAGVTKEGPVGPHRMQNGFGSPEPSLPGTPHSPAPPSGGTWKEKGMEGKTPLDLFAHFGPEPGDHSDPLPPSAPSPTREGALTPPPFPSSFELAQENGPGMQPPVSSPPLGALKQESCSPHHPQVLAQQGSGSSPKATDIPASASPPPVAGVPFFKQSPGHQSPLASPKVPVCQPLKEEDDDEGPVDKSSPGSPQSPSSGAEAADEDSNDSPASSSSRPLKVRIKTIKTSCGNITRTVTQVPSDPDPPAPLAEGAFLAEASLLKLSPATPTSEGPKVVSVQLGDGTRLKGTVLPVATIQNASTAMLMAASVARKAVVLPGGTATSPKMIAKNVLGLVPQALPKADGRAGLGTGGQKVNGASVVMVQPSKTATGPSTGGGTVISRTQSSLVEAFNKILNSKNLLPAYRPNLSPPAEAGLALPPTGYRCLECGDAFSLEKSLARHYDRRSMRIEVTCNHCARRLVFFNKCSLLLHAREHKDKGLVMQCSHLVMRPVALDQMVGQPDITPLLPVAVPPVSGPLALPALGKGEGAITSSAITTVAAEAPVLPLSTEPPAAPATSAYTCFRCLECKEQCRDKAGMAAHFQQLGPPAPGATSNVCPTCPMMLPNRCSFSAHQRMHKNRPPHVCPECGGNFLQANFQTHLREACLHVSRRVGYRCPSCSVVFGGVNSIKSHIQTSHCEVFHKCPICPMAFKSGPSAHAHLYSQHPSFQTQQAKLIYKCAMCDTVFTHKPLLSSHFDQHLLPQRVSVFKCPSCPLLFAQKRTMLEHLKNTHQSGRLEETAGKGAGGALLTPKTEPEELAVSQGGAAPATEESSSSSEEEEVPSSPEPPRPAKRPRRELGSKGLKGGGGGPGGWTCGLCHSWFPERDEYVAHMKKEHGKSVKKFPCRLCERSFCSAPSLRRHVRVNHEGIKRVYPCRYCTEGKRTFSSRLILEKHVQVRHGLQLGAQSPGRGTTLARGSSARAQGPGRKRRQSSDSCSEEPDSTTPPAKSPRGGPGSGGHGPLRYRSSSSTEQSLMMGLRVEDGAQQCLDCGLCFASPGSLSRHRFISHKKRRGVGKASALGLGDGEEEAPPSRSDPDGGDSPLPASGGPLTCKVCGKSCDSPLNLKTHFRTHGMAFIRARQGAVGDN
UniProt Q8ND82: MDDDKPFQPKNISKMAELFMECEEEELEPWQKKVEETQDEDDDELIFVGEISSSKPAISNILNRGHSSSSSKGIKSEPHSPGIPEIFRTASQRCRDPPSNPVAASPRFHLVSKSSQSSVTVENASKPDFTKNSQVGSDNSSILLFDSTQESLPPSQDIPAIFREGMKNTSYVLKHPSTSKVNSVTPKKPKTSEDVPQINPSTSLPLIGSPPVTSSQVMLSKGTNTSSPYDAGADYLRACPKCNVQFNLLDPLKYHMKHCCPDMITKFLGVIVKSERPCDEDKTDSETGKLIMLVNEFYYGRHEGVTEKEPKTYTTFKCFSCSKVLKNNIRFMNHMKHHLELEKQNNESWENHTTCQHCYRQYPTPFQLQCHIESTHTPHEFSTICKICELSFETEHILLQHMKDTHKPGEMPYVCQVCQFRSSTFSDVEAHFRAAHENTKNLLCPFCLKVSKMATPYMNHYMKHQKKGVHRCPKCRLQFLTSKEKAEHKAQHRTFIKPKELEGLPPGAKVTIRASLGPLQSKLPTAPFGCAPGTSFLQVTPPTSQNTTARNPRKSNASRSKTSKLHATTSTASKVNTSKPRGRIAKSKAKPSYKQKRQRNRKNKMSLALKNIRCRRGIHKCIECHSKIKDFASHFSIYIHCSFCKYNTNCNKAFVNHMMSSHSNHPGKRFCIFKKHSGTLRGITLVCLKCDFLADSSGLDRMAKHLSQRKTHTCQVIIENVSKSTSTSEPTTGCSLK
UniProt Q9H9D4: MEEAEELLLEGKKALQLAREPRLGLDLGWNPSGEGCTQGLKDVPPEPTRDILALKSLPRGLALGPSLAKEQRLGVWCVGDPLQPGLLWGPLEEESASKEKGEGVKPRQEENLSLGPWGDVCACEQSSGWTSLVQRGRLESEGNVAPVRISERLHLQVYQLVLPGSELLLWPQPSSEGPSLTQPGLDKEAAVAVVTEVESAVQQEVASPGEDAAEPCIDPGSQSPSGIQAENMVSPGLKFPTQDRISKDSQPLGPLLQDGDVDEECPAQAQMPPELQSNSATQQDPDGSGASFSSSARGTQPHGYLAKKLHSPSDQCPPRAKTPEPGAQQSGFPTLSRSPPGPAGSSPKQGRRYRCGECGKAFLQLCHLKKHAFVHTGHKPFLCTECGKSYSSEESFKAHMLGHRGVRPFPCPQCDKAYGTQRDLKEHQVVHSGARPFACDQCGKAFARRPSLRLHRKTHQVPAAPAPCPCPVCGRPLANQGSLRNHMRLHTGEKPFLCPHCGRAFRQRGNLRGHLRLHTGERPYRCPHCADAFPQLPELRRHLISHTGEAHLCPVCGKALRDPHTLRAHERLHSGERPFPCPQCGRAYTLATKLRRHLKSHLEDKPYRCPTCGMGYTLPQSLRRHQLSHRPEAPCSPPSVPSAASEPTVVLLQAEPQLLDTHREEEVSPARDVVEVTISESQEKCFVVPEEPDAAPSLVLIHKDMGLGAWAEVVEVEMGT
UniProt Q14202: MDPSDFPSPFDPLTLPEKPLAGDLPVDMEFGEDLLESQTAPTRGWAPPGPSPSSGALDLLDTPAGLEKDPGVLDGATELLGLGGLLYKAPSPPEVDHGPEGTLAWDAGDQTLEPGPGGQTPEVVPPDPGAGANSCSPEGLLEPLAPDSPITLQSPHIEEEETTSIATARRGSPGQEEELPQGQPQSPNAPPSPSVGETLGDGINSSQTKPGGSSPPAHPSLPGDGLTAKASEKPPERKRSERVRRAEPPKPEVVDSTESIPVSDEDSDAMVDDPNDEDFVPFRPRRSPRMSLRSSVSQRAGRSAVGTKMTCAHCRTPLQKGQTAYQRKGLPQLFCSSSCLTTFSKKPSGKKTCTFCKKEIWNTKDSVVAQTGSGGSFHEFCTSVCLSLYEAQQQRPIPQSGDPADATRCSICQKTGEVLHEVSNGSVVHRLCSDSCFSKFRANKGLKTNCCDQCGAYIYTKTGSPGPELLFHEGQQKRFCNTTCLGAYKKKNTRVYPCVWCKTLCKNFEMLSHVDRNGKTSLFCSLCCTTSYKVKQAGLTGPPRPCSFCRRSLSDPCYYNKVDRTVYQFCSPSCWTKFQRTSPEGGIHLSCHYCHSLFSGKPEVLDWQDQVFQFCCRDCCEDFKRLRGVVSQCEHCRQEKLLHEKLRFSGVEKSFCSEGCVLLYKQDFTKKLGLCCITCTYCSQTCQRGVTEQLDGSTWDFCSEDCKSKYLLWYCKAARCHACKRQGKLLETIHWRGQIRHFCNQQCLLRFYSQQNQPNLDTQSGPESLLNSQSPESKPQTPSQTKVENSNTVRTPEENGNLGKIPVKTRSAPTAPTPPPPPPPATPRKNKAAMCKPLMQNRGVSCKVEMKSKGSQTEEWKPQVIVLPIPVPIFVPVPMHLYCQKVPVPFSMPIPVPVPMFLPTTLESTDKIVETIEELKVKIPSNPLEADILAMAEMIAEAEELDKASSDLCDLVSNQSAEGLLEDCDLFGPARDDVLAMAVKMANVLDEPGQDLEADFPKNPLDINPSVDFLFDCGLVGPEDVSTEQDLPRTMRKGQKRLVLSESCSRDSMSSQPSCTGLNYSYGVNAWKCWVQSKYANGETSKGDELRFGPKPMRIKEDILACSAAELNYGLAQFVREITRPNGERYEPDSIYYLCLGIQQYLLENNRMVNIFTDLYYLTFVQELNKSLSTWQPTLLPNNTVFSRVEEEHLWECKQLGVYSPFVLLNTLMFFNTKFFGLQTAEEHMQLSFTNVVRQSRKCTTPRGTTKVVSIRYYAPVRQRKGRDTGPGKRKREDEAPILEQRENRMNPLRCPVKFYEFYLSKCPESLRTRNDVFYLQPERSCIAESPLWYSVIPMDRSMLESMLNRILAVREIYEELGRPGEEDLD
UniProt Q7Z3T8: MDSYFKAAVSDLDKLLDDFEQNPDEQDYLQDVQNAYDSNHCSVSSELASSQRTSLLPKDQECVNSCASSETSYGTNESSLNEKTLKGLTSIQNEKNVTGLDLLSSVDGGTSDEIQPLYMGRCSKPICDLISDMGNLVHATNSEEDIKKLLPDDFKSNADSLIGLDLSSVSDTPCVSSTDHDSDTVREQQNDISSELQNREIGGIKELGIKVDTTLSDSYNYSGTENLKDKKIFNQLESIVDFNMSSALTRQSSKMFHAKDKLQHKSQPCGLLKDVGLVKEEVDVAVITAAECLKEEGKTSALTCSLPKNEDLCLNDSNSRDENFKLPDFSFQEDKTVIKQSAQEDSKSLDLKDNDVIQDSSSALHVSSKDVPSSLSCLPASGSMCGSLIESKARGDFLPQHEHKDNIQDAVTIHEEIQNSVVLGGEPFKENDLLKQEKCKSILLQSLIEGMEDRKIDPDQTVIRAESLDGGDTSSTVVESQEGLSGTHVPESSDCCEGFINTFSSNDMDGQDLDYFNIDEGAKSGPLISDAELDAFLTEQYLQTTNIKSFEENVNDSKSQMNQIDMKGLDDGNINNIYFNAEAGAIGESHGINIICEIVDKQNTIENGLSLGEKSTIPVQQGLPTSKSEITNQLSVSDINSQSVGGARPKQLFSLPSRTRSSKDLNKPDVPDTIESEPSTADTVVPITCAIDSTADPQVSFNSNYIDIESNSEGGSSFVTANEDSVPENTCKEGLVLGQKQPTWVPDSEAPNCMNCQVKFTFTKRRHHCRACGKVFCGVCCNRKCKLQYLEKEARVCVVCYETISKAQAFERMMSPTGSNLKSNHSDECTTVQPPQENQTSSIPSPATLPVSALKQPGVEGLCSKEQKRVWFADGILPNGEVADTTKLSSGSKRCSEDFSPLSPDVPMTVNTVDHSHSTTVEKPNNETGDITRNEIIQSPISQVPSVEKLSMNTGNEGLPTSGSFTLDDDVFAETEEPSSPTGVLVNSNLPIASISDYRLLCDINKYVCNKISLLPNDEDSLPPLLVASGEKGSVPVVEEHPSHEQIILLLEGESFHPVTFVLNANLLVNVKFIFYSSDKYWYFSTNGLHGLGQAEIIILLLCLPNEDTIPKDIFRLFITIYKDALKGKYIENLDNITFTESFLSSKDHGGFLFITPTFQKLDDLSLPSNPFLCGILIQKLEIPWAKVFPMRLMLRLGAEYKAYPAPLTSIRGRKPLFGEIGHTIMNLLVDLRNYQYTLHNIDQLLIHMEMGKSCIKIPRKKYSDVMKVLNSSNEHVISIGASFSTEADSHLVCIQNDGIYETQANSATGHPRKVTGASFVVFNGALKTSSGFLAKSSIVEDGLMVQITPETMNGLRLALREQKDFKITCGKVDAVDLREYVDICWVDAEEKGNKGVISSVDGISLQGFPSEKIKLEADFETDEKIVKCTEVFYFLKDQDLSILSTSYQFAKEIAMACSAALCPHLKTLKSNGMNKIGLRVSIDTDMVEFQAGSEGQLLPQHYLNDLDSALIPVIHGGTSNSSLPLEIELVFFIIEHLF

Compound: Cc1cc(ccc1-c1ccccc1)C(=O)N1CCCN(CC1)C(=O)CCl [compound 10]
Experiment: probe-labelled cysteine peptide fold change vs DMSO (competition) (log2 fold change); higher = less target engagement (more negative = stronger competition)
Conditions: THP-1, incubation time: 4 h
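Also: competitive profiling in live THP-1 cells: cysteine peptides tagged with an iodoacetamide desthiobiotin (IA-DTB) probe, intensity after compound treatment relative to DMSO-treated cells.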

Target	probe-labelled cysteine peptide fold change (10 µM)	probe-labelled cysteine peptide fold change (50 µM)
ZNF598_Q86UK7_122_CPELPPFSLFGDLEQHMR (UniProt Q86UK7)	-0.306	-0.388
ZNF106_Q9H2Y7_432_QCPTAEKPEQEHTPNK (UniProt Q9H2Y7)	-0.456	-0.279
ZNF512_Q96ME7_540_NNEELVVSASCK (UniProt Q96ME7)	0.0455	0.0373
ZNF224_Q9NZL3_132_EGDFPCQTEAGLSVIHTR (UniProt Q9NZL3)	0.328	0.0536
ZNF687_Q8N1G0_718_CSFSAHQR (UniProt Q8N1G0)	0.117	-0.117
ZNF638_Q14966_1933_AGFFCPICSLFYSGEK (UniProt Q14966)	0.108	0.107
ZNF512_Q96ME7_192_HMENCK (UniProt Q96ME7)	-0.00733	-0.186
ZNF460_Q14592_313_KPFACSECGK (UniProt Q14592)	0.187	0.173
ZFPL1_O95159_70_LVCYDLFHWACLNER (UniProt O95159)	-0.0626	-0.0494
ZNF280D_Q6N043_323_CFSCLK (UniProt Q6N043)	-0.0325	-4.3e-05
ZNF189_O75820_610_TQETHECDACGEAFNCR (UniProt O75820)	0.105	-0.498
ZNF512B_Q96KM6_774_AHLASCSK (UniProt Q96KM6)	0.143	-0.0282
ZMYND8_Q9ULU4_130_LTSEPEGDWFCPECEK (UniProt Q9ULU4)	0.0029	-0.255
ZNF24_P17028_189_HCDDDGRTENGALAPK (UniProt P17028)	-0.0729	-0.0347
ZNF280C_Q8ND82_690_CDFLADSSGLDR (UniProt Q8ND82)	-0.015	0.1
ZNF143_P52747_274_SHTGDRPYQCEHAGCGK (UniProt P52747)	0.107	0.555
ZMIZ2_Q8NF64_418_SPFLPDLKPNLNSLHSSPSGSGPCDELR (UniProt Q8NF64)	-0.102	-0.577
ZNF195_O14628_195_DWESLDECK (UniProt O14628)	-0.236	-0.776
ZNF428_Q96B54_114_LCCPATAPQEAPAPEGR (UniProt Q96B54)	-0.106	-0.534
ZNF131_P52739_9_MEAEETMECLQEFPEHHK (UniProt P52739)	-0.115	-0.179
ZNF451_Q9Y4E5_461_SHEGVACVQK (UniProt Q9Y4E5)	-0.282	-0.471
ZNF330_Q9Y3S2_114_CLSTHACACPLTDAECVECER (UniProt Q9Y3S2)	0.172	0.0269
ZNF217_O75362_93_HVLMQHRPTLCEPAVLR (UniProt O75362)	-0.0938	0.0659
ZNF106_Q9H2Y7_1853_NCDAFFTAR (UniProt Q9H2Y7)	-0.0368	0.278
ZNF638_Q14966_688_EQSLHYGSVLLITELPEDGCTEEDVR (UniProt Q14966)	0.0192	0.11
ZNF598_Q86UK7_33_GGGSCVLCCGDLEATALGR (UniProt Q86UK7)	-0.0671	0.0981
ZNF408_Q9H9D4_685_CFVVPEEPDAAPSLVLIHK (UniProt Q9H9D4)	-0.15	0.139
ZNF638_Q14966_428+431_IFPHLCSLCNVECSHLK (UniProt Q14966)	0.156	0.402

Target	probe-labelled cysteine peptide fold change (10 µM)	probe-labelled cysteine peptide fold change (50 µM)
ZMYM2_Q9UBW7_331_VTCANCK (UniProt Q9UBW7)	-0.187	-0.26
ZNF597_Q96LX8_386_TCEESFALDSELACHQK (UniProt Q96LX8)	-0.109	-0.443
ZMYM1_Q5SVZ6_532_EYQFCDGAVSDDLSIHSK (UniProt Q5SVZ6)	-0.52	-0.546
ZMYM4_Q5VZL5_690_CQHCNR (UniProt Q5VZL5)	0.26	-0.0447
ZNF687_Q8N1G0_566_IEVTCNHCAR (UniProt Q8N1G0)	-0.156	0.186
ZGPAT_Q8N5A5_180_SLKPCPFFLEGK (UniProt Q8N5A5)	-0.073	-0.614
ZNF318_Q5VUA4_1740_SELDLGEPGPPGVEPPPQLLDIQCK (UniProt Q5VUA4)	-0.112	-0.116
ZNF598_Q86UK7_247_CSTEQFTHAFR (UniProt Q86UK7)	0.127	-0.15
ZNF106_Q9H2Y7_1307_GNSGSEACTSSFLR (UniProt Q9H2Y7)	-0.174	-0.413
ZMYM3_Q14202_1048_RLVLSESCSR (UniProt Q14202)	0.0192	0.182
ZGRF1_Q86YA3_2008_EIIILSCVR (UniProt Q86YA3)	0.0751	-0.35
ZNF710_Q8N1W2_91_ALEEPAEEEVLEVEAACEK (UniProt Q8N1W2)	-0.174	0.013
ZNF551_Q7Z340_340_HECGECR (UniProt Q7Z340)	0.102	0.508
ZFYVE16_Q7Z3T8_1174_LDDLSLPSNPFLCGILIQK (UniProt Q7Z3T8)	0.283	0.682
ZKSCAN1_P17029_63_FCYQNTFGPR (UniProt P17029)	0.0325	-0.0499
ZNF408_Q9H9D4_383_HAFVHTGHKPFLCTECGK (UniProt Q9H9D4)	0.0181	0.183
ZNF280C_Q8ND82_734_STSTSEPTTGCSLK (UniProt Q8ND82)	-0.118	-0.254
ZMYND11_Q15326_126_CLSDEFR (UniProt Q15326)	-0.00978	0.0128
ZNF280D_Q6N043_827_NIVSCDSNIGADKVEK (UniProt Q6N043)	-0.428	-0.72
ZNF512_Q96ME7_171+174_GSVSCPTCQAVGR (UniProt Q96ME7)	0.0329	-0.62
ZNF516_Q92618_165_GAEGSACAPGEAK (UniProt Q92618)	-0.148	-0.0488
ZNF292_O60281_2454_DSDTCVSESNDNSR (UniProt O60281)	-0.0868	-0.0607
ZNF687_Q8N1G0_91_NTVCPEQSEALAGGSAGDGAQAAGVTK (UniProt Q8N1G0)	-0.392	-0.0527
ZNF430_Q9H8G1_138_CGHEDLQLR (UniProt Q9H8G1)	-0.195	-0.412
ZMYND8_Q9ULU4_196_MKQPGTDAFQKPVPLEQHPDYAEYIFHPMDLCTLEK (UniProt Q9ULU4)	-0.325	-0.838
ZNF207_O43670_54_KLYTGPGLAIHCMQVHK (UniProt O43670)	-0.0865	-0.652
ZNF691_Q5VV52_232_THLEPAPYICCECGK (UniProt Q5VV52)	0.127	-0.851

Complete entries, quoted from the list:
ZMYM3_Q14202_1048_RLVLSESCSR (UniProt Q14202) is entered as probe-labelled cysteine peptide fold change (10 µM): 0.0192; probe-labelled cysteine peptide fold change (50 µM): 0.182
ZFYVE16_Q7Z3T8_1174_LDDLSLPSNPFLCGILIQK (UniProt Q7Z3T8) is entered as probe-labelled cysteine peptide fold change (10 µM): 0.283; probe-labelled cysteine peptide fold change (50 µM): 0.682
ZNF280C_Q8ND82_734_STSTSEPTTGCSLK (UniProt Q8ND82) is entered as probe-labelled cysteine peptide fold change (10 µM): -0.118; probe-labelled cysteine peptide fold change (50 µM): -0.254
